The record followed here is the supplement of paper PMC10849652.

Chains of the proteins cited; added tags and fusions are not shown. Lines headed by an entry give the natural chain unless they say otherwise; changes in a name come on top.
UniProt Q8IZT6: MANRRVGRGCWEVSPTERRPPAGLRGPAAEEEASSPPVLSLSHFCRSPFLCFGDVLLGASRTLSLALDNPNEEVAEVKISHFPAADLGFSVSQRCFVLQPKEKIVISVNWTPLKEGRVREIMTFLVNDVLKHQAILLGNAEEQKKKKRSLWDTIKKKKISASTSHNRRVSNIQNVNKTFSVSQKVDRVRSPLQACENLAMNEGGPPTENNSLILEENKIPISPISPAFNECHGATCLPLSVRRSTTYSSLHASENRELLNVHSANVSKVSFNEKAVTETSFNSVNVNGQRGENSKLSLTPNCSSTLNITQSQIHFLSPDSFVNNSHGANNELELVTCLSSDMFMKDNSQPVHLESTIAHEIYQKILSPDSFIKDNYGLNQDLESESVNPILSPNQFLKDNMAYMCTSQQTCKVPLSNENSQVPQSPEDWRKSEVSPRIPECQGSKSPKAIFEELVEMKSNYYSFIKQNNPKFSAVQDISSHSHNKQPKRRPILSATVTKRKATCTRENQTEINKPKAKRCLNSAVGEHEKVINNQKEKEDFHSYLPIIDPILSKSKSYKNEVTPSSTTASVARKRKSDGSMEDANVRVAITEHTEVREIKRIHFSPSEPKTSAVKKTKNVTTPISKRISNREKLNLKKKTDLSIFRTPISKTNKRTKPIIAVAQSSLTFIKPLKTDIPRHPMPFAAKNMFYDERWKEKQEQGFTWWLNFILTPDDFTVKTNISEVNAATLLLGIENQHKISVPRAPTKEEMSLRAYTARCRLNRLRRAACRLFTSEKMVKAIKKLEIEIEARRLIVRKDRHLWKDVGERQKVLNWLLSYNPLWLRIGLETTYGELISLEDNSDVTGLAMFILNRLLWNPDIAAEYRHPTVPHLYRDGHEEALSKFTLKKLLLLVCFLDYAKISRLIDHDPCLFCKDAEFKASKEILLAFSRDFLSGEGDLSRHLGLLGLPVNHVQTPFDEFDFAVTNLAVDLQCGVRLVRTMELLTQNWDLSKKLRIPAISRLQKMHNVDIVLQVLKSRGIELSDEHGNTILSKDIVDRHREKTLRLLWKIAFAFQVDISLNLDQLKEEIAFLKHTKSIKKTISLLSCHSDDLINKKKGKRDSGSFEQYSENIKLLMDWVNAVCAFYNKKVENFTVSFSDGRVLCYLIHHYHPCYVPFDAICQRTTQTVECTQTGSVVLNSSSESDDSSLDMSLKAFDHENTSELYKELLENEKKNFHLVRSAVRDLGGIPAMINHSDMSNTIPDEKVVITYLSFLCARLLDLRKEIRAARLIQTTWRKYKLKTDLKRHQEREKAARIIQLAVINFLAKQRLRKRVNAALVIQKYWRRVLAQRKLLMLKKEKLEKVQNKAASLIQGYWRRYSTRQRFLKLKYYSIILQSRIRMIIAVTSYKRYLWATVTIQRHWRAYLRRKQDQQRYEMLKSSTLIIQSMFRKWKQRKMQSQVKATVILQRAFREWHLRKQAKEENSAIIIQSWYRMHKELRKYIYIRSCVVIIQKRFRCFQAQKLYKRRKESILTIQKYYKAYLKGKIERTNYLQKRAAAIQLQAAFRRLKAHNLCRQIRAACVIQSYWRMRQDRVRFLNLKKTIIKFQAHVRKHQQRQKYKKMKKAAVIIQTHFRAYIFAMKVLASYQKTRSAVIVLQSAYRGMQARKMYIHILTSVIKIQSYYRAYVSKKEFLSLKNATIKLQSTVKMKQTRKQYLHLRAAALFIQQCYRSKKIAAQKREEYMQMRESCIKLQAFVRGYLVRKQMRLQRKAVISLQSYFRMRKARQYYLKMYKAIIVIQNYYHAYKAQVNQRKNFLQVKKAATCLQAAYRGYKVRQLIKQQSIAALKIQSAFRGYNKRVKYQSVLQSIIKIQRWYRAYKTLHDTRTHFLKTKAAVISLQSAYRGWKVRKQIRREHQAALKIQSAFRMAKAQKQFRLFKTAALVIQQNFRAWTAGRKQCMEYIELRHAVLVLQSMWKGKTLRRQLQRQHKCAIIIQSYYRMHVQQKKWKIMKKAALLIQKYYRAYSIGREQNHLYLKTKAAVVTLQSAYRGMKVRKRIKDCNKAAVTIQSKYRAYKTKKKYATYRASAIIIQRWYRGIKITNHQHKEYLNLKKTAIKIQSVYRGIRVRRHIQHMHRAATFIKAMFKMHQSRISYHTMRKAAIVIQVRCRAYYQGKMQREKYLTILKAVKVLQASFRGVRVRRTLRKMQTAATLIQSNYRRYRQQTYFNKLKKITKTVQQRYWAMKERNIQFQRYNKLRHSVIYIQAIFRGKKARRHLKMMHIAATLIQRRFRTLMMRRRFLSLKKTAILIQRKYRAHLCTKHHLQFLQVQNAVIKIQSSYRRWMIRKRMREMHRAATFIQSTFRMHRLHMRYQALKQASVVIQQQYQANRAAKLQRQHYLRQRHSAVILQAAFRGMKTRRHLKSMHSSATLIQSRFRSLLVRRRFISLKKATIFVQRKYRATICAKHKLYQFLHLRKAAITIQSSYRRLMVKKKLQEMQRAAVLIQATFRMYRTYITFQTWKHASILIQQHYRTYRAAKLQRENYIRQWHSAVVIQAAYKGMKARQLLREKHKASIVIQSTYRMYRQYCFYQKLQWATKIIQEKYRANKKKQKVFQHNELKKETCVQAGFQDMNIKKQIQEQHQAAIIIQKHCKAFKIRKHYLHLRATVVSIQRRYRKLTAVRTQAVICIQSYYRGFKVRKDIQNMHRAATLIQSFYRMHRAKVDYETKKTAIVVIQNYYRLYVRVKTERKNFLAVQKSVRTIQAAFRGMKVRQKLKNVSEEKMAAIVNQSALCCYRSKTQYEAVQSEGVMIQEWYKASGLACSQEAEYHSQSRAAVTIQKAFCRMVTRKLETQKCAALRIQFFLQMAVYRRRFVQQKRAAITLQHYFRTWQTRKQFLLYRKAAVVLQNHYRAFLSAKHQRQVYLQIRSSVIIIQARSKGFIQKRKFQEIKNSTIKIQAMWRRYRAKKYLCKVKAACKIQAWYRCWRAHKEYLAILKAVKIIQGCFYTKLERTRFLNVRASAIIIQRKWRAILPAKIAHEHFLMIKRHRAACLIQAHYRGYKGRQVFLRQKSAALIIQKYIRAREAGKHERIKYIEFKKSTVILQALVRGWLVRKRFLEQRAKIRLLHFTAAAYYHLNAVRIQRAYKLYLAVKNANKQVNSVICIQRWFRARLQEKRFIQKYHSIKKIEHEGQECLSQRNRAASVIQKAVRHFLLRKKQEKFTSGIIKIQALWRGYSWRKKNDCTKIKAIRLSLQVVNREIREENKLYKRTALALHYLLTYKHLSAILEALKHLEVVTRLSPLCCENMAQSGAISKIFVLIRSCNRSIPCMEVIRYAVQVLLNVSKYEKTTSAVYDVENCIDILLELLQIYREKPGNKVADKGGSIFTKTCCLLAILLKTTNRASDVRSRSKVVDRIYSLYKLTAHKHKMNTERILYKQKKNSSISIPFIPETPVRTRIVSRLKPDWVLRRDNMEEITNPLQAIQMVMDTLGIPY
UniProt P56381: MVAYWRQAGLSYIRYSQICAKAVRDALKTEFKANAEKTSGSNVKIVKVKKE
UniProt P61421, whole entry, looked up: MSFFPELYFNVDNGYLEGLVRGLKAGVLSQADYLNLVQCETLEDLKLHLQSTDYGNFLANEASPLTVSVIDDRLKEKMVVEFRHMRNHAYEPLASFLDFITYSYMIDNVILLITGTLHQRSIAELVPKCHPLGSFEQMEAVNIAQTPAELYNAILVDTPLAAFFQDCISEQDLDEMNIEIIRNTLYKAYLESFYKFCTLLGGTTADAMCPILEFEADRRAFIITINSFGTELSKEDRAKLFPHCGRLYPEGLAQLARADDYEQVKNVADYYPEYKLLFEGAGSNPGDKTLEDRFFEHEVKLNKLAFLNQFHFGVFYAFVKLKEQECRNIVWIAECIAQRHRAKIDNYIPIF
UniProt Q9H2C2: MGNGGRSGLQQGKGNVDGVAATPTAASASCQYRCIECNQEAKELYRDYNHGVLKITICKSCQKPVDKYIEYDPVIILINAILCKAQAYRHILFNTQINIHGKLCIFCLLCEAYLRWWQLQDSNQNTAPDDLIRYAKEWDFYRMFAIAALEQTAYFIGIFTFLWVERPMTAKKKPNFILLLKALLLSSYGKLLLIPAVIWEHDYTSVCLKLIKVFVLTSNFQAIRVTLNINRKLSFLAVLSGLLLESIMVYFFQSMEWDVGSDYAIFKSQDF
UniProt Q8NB49: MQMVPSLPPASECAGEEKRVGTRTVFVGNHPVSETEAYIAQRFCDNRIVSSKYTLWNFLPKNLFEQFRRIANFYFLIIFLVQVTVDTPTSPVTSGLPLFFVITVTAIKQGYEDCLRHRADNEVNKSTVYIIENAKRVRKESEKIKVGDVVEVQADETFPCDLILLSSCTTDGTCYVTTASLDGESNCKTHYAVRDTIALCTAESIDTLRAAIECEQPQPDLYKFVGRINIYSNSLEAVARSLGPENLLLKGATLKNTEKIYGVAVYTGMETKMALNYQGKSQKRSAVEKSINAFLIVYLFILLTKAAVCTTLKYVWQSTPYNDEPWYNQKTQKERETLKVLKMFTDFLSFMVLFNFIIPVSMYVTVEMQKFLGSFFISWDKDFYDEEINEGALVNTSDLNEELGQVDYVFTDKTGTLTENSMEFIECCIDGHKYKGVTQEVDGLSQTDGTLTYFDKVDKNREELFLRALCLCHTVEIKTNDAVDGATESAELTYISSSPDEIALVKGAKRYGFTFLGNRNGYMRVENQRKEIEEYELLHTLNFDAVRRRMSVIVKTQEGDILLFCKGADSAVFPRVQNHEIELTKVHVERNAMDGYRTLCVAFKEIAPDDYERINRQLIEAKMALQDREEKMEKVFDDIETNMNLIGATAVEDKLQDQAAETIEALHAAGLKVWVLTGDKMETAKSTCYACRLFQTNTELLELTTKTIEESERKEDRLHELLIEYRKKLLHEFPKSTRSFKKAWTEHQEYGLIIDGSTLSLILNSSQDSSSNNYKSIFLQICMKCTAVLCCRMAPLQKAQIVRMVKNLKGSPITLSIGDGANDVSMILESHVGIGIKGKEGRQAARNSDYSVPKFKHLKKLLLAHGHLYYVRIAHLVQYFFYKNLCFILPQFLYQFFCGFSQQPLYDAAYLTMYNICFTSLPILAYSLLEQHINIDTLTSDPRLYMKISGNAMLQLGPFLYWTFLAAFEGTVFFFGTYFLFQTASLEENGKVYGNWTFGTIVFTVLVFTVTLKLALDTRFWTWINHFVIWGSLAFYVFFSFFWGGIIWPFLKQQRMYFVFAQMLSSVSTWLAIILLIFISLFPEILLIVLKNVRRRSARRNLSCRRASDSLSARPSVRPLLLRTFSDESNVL
UniProt P23634: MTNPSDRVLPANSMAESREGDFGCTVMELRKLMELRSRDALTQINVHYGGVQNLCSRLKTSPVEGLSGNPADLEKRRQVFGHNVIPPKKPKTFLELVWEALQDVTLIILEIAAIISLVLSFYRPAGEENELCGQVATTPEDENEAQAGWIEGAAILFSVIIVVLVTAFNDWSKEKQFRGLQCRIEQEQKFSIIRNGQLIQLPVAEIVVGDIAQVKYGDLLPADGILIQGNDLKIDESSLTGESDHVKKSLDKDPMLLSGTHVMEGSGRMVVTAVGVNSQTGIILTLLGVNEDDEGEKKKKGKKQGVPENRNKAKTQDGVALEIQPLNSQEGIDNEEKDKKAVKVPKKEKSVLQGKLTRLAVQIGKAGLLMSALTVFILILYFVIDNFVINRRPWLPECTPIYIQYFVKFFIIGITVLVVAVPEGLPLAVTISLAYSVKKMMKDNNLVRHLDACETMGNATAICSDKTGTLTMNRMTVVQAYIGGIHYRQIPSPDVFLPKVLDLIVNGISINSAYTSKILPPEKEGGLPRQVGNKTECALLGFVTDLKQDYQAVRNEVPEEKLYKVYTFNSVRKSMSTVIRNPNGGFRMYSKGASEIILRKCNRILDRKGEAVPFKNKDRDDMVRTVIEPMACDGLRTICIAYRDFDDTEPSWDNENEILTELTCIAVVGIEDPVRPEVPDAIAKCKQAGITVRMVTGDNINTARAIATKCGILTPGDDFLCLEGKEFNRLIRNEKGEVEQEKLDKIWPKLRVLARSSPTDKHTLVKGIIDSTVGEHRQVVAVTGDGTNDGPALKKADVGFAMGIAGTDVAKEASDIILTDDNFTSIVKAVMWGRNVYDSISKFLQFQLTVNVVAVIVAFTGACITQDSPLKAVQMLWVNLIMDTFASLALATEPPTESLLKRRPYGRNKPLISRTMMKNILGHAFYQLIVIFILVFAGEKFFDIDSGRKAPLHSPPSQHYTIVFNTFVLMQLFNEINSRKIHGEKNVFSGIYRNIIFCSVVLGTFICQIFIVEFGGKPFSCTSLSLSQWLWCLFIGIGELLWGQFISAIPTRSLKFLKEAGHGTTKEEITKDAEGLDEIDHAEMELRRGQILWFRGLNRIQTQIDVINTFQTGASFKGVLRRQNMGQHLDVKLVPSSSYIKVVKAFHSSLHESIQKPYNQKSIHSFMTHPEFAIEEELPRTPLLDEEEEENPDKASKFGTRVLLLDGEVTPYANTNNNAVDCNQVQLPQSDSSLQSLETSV

The other results are listed elsewhere or left out.

Compound in the first assay: CCCc1cc(C)[nH]c(=O)c1CNC(=O)c1cc(-c2ccnc(N3CCN(C)CC3)c2)cc2c1cnn2C(C)C
Kind of assay: log2 fold change, soluble protein after heating vs DMSO (PISA); higher = thermal stabilisation; K562 cells, 10 uM, 30 min; active = over 0.2 and 3.5 SD of the protein, either way, in both replicates (recomputed). The method in brief:
(§1)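 Aliquots of K562 cells (2×10^6 cells/mL) treated with 10 μM compound for 30 min were heated for 3 min over 48°C-58°C. After pooling and extraction in PBS with 0.5% NP-40 at 4°C, soluble protein from a 21,000xg, 90 min spin was quantified by TMTpro 16plex LC-MS/MS with channel sums equalised. Thermal stability is expressed against control samples, from duplicates, as a log2 fold change.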
As for ATP7A isoform 3 (UniProt Q04656), the log2 fold change was inactive: -0.008.
Regarding ARPC1B (UniProt O15143), the log2 fold change was inactive: 0.043.
Take ASAP1 isoform 2 (UniProt Q9ULH1): the log2 fold change is inactive: -0.028.
On the same count and under the same terms, as for ATG3 (UniProt Q9NT62), the figure is inactive: -0.029.
Same read-out and setting: under ARL6IP1 (UniProt Q15041) stands inactive: -0.01.
For the target ATG2A isoform 3 (UniProt Q2TAZ0), the log2 fold change was inactive: -0.06.
Still for that read-out and setting: under ARRB2 isoform 4 (UniProt P32121) stands inactive: 0.017.
ATP5MF (UniProt P56134): the log2 fold change was inactive: -0.038.
Still for that read-out and setting: as for ASPM (UniProt Q8IZT6), the figure is inactive: 0.063; as for ATP6V1A (UniProt P38606), inactive: 0.016.
Take ATP11B (UniProt Q9Y2G3): the log2 fold change is inactive: -0.05.
As for ASL (UniProt P04424), the log2 fold change is inactive: -0.018.
The same measure, in the same setting: as for ATP6AP2 (UniProt O75787), the figure is inactive: 0.034; as for ASAH1 isoform 2 (UniProt Q13510), inactive: -0.112; as for ATP5F1A (UniProt P25705), inactive: -0.029.
In the case of ARIH2 (UniProt O95376), the log2 fold change was inactive: 0.036.
As for ARPC3 (UniProt O15145), the log2 fold change is inactive: -0.108.
Regarding ATPAF2 (UniProt Q8N5M1), the log2 fold change is inactive: -0.043.
With ATG2B (UniProt Q96BY7), the log2 fold change is inactive: -0.041.
Take ARPC1A (UniProt Q92747): the log2 fold change is inactive: -0.07.
For the target ATP5F1E (UniProt P56381), the log2 fold change is inactive: -0.019.
As for ATE1 isoform 2 (UniProt O95260), the log2 fold change is inactive: -0.021.
Consider ASPH (UniProt Q12797), for which the log2 fold change is inactive: 0.034.
As for ATP2C1 isoform 7 (UniProt P98194), the log2 fold change is inactive: -0.056.
Take ATL3 (UniProt Q6DD88): the log2 fold change was inactive: -0.005.
ARPC5 (UniProt O15511): the log2 fold change is inactive: -0.057.
As to ARPC2 (UniProt O15144), the log2 fold change was inactive: -0.061.
As for ATP5MC2 isoform 2 (UniProt Q06055), the log2 fold change was inactive: -0.118.
Still for that read-out and setting: as for ARMC1 (UniProt Q9NVT9), the figure is inactive: -0.028.
On to ATF2 (UniProt P15336), for which the log2 fold change is inactive: -0.317.
Consider ATP6V0D1 (UniProt P61421), for which the log2 fold change was inactive: 0.014.
For the target ASCC3 (UniProt Q8N3C0), the log2 fold change is inactive: -0.27.
Consider ARPC4 isoform 3 (UniProt P59998), for which the log2 fold change is inactive: -0.054.
Turning to ARV1 (UniProt Q9H2C2), the log2 fold change was inactive: -0.102.
Take ARSB (UniProt P15848): the log2 fold change was inactive: -0.014.
In the case of ASF1A (UniProt Q9Y294), the log2 fold change is inactive: -0.002.
On to ATP11C (UniProt Q8NB49), for which the log2 fold change is inactive: -0.014.
Turning to ATP2B4 (UniProt P23634), the log2 fold change is inactive: -0.014.

Compound in a further assay: CCN(CC)Cc1ccc2cc(COC(=O)Nc3ccc(C(=O)NO)cc3)ccc2c1 [givinostat]
Described as above. The method in brief:
as §1
As for ATP7A isoform 3 (UniProt Q04656), the log2 fold change was inactive: -0.002.
Take ARPC1B (UniProt O15143): the log2 fold change was inactive: -0.022.
Turning to ASAP1 isoform 2 (UniProt Q9ULH1), the log2 fold change was inactive: 0.023.
Still for that read-out and setting: under ATG3 (UniProt Q9NT62) stands inactive: 0.007; under ARL6IP1 (UniProt Q15041), inactive: 0.006; under ATG2A isoform 3 (UniProt Q2TAZ0), inactive: 0.007.
Still for that read-out and setting: as for ARRB2 isoform 4 (UniProt P32121), the figure is inactive: -0.022.
As for ATP5MF (UniProt P56134), the log2 fold change was inactive: -0.005.
Consider ASPM (UniProt Q8IZT6), for which the log2 fold change is inactive: -0.084.
In the case of ATP6V1A (UniProt P38606), the log2 fold change is inactive: 0.015.
In the case of ATP11B (UniProt Q9Y2G3), the log2 fold change was inactive: 0.025.
For ASL (UniProt P04424), the log2 fold change was inactive: -0.009.
ATP6AP2 (UniProt O75787): the log2 fold change was inactive: -0.031.
Same read-out and setting: under ASAH1 isoform 2 (UniProt Q13510) stands inactive: -0.03.
Regarding ATP5F1A (UniProt P25705), the log2 fold change was inactive: -0.012.
Take ARIH2 (UniProt O95376): the log2 fold change is inactive: -0.039.
As to ARPC3 (UniProt O15145), the log2 fold change was inactive: -0.01.
On the same count and under the same terms, under ATPAF2 (UniProt Q8N5M1) stands inactive: 0.017; under ATG2B (UniProt Q96BY7), inactive: 0.004; under ARPC1A (UniProt Q92747), inactive: -0.044.
ATP5F1E (UniProt P56381): the log2 fold change was inactive: -0.051.
Take ATE1 isoform 2 (UniProt O95260): the log2 fold change was inactive: -0.05.
For ASPH (UniProt Q12797), the log2 fold change was inactive: 0.116.
Regarding ATP2C1 isoform 7 (UniProt P98194), the log2 fold change was inactive: -0.028.
On the same count and under the same terms, as for ATL3 (UniProt Q6DD88), the figure is inactive: 0.019; as for ARPC5 (UniProt O15511), inactive: 0.019.
The same measure, in the same setting: under ARPC2 (UniProt O15144) stands inactive: -0.032; under ATP5MC2 isoform 2 (UniProt Q06055), inactive: -0.016.
As for ARMC1 (UniProt Q9NVT9), the log2 fold change was inactive: 0.045.
Same read-out and setting: under ATF2 (UniProt P15336) stands inactive: -0.09.
As for ATP6V0D1 (UniProt P61421), the log2 fold change is inactive: -0.034.
In the case of ASCC3 (UniProt Q8N3C0), the log2 fold change is inactive: 0.196.
For ARPC4 isoform 3 (UniProt P59998), the log2 fold change is inactive: 0.011.
Take ARV1 (UniProt Q9H2C2): the log2 fold change was inactive: 0.014.
Turning to ARSB (UniProt P15848), the log2 fold change was inactive: 0.022.
Still for that read-out and setting: under ASF1A (UniProt Q9Y294) stands inactive: 0.012; under ATP11C (UniProt Q8NB49), inactive: -0.06.
Still for that read-out and setting: under ATP2B4 (UniProt P23634) stands inactive: -0.014.
